Test results taken from PMC8390506.
No constants are given. Whether binding was seen depends on the method and setting. Some binding calls cover weakened binding; strength is not graded here.

Chains of the proteins cited; added tags and fusions are not shown.
UniProt Q6NUF4: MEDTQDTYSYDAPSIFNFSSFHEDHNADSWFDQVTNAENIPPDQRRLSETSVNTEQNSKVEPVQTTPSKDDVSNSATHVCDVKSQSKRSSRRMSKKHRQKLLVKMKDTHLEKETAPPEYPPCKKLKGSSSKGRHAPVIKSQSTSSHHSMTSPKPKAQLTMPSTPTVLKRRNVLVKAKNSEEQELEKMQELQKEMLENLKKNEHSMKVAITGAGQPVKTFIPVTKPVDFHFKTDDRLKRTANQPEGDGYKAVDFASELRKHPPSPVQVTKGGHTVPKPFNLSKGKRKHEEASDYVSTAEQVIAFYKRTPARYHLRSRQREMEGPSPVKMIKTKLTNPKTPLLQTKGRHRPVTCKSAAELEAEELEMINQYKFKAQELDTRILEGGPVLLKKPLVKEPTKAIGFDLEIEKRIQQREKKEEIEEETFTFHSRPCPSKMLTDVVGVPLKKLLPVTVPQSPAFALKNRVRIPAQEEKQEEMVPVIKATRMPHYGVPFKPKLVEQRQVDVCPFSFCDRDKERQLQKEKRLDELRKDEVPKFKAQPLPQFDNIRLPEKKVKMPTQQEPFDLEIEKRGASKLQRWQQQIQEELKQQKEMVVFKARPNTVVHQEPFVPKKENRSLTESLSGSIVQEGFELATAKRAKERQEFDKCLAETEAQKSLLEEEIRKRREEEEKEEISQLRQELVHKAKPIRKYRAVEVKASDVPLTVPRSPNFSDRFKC
UniProt P52297: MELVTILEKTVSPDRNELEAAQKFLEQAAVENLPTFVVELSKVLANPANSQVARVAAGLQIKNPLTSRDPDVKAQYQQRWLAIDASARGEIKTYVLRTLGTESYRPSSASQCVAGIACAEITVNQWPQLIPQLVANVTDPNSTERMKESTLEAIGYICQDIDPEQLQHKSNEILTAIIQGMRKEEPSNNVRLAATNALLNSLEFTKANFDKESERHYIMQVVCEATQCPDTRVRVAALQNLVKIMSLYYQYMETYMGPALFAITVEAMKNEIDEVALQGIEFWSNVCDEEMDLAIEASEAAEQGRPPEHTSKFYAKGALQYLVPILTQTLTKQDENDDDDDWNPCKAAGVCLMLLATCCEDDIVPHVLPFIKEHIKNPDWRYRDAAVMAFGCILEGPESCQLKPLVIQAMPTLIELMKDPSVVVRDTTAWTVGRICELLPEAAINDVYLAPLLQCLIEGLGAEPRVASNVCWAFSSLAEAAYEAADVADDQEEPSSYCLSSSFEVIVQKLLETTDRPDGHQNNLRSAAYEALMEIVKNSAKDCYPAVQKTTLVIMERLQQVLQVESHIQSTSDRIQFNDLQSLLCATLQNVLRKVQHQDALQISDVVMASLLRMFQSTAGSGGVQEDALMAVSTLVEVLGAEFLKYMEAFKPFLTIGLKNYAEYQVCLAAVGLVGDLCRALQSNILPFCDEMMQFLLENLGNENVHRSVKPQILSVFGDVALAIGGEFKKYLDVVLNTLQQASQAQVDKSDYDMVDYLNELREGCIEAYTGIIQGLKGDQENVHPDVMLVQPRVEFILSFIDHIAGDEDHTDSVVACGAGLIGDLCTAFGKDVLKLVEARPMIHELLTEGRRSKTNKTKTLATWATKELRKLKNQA

Legend:
[1] = target: Targeting Protein for XKlp2 (TPX2), full length, wild type (Xenopus laevis) (UniProt Q6NUF4); test: SEC-MALS; Superdex-200-increase 3.2/300; TPX2 with importin-β (Fig. S1C); both purified
[2] = target: Targeting Protein for XKlp2 (TPX2), full length, wild type (Xenopus laevis) (UniProt Q6NUF4); test: SEC; AKTA Pure-25L; TPX2 kept at 2 μM, importin-β varied from 2 to 30 μM; area under the peak of the eluted complexes (1.2-1.6 ml, A280); both purified
[3] = target: Targeting Protein for XKlp2 (TPX2), full length, wild type (Xenopus laevis) (UniProt Q6NUF4); test: SEC-MALS; Superdex-200-increase 3.2/300 in line with a Wyatt light scattering machine; GFP-TPX2 alone, importin-α/β alone and TPX2 with importin-α/β (TPX2 printed as 5 M, importin-α/β 15 μM); both purified

binding [1]: binds weakly | binding [2]: binds weakly | binding [3]: binds weakly
Substance: importin-β (from UniProt P52297 1-876)
